This passage reports binding results from PMC6695496.

Sequences of proteins named here, by UniProt entry; tags and fusion partners are left off.
UniProt P30153: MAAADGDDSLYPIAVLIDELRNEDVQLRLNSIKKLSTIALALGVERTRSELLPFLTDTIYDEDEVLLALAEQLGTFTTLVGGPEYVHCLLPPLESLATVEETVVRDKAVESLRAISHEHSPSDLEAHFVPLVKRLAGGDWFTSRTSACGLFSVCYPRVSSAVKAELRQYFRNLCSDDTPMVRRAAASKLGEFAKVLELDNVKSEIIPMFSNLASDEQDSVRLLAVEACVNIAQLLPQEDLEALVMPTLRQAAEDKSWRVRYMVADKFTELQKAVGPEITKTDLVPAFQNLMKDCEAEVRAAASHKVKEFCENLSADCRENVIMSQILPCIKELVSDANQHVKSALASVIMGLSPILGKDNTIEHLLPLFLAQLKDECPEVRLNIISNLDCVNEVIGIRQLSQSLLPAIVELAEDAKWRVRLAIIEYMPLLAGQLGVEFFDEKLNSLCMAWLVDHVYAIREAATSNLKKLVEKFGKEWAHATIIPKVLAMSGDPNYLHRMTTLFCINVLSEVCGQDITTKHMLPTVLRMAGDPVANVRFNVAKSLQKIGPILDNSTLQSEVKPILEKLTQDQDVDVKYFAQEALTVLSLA
UniProt P49841: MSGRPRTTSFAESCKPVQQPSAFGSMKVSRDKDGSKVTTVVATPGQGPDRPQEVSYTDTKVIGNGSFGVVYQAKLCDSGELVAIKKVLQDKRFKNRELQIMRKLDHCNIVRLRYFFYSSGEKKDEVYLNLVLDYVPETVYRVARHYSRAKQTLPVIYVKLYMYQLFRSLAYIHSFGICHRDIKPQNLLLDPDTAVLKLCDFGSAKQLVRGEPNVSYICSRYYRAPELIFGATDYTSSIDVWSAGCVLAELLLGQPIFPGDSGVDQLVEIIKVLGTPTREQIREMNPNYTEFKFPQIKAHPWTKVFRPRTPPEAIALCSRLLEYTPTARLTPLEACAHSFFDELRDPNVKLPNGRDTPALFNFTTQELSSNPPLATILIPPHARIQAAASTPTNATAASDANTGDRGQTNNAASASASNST
UniProt P46940: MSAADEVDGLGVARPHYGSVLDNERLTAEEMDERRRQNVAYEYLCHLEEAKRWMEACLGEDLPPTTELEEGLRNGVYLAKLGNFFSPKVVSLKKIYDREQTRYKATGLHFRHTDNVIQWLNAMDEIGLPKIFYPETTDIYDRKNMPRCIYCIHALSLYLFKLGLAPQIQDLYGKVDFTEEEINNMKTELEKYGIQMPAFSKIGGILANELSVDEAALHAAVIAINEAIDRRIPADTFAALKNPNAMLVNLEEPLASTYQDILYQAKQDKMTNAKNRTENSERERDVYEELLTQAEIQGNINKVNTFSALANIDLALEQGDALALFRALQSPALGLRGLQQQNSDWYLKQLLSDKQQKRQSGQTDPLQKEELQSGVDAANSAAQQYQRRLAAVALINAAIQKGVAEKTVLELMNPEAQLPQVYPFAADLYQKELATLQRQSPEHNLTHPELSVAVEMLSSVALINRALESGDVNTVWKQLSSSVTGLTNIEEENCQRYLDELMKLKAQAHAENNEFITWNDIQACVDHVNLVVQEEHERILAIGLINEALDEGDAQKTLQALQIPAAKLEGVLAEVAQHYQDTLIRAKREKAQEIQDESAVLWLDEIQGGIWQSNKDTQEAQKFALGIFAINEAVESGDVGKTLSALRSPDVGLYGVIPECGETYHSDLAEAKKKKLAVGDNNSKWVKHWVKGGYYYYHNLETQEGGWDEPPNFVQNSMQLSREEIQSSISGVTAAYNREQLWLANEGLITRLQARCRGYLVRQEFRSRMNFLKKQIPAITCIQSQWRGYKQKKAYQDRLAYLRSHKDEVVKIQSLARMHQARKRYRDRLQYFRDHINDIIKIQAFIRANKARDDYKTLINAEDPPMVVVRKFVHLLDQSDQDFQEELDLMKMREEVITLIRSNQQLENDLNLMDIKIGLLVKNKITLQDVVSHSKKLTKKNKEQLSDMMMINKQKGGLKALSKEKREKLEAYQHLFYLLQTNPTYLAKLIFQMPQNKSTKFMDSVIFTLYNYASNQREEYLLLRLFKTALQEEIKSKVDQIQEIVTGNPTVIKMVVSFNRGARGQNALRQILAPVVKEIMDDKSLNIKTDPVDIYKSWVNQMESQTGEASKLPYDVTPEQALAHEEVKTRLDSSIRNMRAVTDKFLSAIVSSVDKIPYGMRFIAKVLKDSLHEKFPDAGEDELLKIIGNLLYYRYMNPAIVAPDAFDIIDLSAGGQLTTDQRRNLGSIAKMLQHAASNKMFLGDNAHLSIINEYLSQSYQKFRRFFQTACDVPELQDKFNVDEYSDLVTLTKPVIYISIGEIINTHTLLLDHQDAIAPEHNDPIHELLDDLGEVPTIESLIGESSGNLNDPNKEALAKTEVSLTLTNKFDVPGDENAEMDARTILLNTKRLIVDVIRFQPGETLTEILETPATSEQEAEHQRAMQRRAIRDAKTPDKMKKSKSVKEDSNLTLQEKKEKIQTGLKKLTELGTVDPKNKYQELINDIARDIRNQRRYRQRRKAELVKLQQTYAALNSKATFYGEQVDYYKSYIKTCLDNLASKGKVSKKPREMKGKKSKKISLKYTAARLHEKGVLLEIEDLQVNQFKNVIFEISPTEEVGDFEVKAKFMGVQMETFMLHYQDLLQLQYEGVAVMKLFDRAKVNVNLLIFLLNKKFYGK
UniProt Q92973: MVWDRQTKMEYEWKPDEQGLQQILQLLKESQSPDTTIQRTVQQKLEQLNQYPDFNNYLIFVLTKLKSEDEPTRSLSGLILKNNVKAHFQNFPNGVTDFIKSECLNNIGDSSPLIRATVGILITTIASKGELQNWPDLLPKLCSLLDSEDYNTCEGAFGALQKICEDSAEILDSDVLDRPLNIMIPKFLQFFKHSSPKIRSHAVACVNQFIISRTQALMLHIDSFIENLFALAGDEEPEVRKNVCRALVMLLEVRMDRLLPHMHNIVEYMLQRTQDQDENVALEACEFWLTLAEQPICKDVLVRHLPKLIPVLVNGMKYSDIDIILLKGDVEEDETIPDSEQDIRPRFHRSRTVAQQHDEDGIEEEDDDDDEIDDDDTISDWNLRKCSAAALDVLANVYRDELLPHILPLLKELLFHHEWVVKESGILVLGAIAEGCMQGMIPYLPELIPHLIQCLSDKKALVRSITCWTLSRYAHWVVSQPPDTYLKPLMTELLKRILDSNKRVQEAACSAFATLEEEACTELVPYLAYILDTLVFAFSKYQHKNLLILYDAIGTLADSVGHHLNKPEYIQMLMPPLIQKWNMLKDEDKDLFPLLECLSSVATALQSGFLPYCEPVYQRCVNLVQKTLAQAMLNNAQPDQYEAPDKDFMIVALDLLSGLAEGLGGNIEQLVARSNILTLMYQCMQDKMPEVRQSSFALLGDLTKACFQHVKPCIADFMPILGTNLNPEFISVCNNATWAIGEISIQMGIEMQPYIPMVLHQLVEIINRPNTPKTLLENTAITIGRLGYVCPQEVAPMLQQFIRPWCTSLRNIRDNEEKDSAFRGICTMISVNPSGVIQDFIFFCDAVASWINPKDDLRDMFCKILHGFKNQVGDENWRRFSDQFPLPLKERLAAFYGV

Experiment [1] concerns the target Venus-tagged PER2 (mouse) (UniProt O54943). The experiment can be described thus: co-IP; lysates of transfected U2OS cells (48 h post-transfection, RIPA buffer: 50 mM HEPES pH 7.4, 150 mM NaCl, 1% NP-40, 0.5% sodium deoxycholate) immunoprecipitated with anti-GFP antibody on protein-G magnetic beads at 4 °C overnight to capture PER2-Venus; immunoblot for endogenous partners. (In general: Immunoblotting shows a protein as a band on a membrane.)

The target of experiment [2] is PER2 (endogenous, mouse liver) (mouse (endogenous in liver)) (UniProt O54943). In words: co-IP; mouse liver extracts immunoprecipitated and then immunoblotted with the indicated antibodies; endogenous proteins.

These are yes or no findings as the source states them, for the method shown. Binding seen in cells or lysates may run through a third protein. Some entries that bind do so weakly or less than the wild type.

As to “PPP2R1A (protein phosphatase regulatory subunit) (from UniProt P30153 1-589)”, in experiment [1], the binding entry is “binds”. On the same count and under the same terms, as for “GSK3B (endogenous, U2OS cells) (from UniProt P49841 1-420) (enzyme)”, the entry is “binds”. Take “DYRK1A (endogenous, mouse liver) (from UniProt Q61214 1-763) (enzyme)”: the binding entry in experiment [2] is on record as “binds”.

On to “IQGAP1 (CaM-binding scaffolding protein) (from UniProt P46940 1-1657)”, for which the binding entry in experiment [1] is recorded as “binds”.

Take “TNPO1 (nuclear import protein; Transportin 1) (from UniProt Q92973 1-898)”: the binding result in experiment [1] is reported as “binds”.
